Experimental data from patent publication US10299502B2, “Method for producing an extract of a matrix of vegetable origin with a non-ionic amphiphilic compound as extraction adjuvant in an aqueous medium” (PIERRE FABRE DERMO-COSMETIQUE, priority 2015, dated 2019).
At least one structure is not confirmed: it was looked up by name or label, or the drawing left a doubt.

Test: Solubilization curves (Sudan red, α-mangostin) to determine the minimum hydrotrope concentration
Type: physicochemical
Details: aqueous solution, UV spectrophotometry at 476 nm
Procedure: The term “minimum hydrotrope concentration” refers to the concentration above which these non-ionic amphiphilic compounds begin to form aggregates, i.e., new microenvironments with physical properties different from those observed when the compound is diluted, and different from micellar behavior. This minimum hydrotrope concentration is specific to each non-ionic amphiphilic compound and generally has the order of magnitude of the molarity. It can be determined by several physicochemical methods, such as by measuring surface tension, conductivity or dynamic and static light scattering (Self-association of nicotinamide in aqueous solution: Light-scattering and vapor pressure osmometry studies (1996) 85(8): 848-853), or quite simply by establishing a solubilization curve of a lipophilic compound (solubilized solute content as a function of concentration of non-ionic amphiphilic compound). Sudan red, a lipophilic dye easily measured by spectrophotometry, can be used as reference. […]
The solubilization curves of Sudan red in aqueous solutions of various non-ionic amphiphilic compounds at different concentrations were prepared. After saturation of the solutions with Sudan red and filtration, the Sudan red content solubilized in each solution is measured after dilution by UV spectrophotometry at 476 nm. […]

For CCCCCCCCCCO[C@@H]1O[C@H](CO)[C@@H](O)[C@H](O)[C@H]1O [Plantacare, decyl glucoside], the “behavior in the Sudan red solubilization curve” value was “high solubilization at low concentration”.
